# Literature values, collected in US20220370379A1, “CANNABINOID-[…] AND METHOD THEREFOR” (PURE GREEN […], INC., priority 2019, published 2022).
# Some results were stated once for a whole list of compounds, not compound by compound.
# Details: emulsifiers of the emulsifier blend
substance,measurement,value
rhamnolipid,HLB number,> 12
